# Assay: Preparation of thin film and evaluation (polarization microscope, scanning probe microscope)
compound,measurement,setting,value
CCCCCC(=O)OC1CCC(OC(=O)CCCCC)c2cc(N(c3ccc(-c4ccc(N(c5ccc6c(c5)C(OC(=O)CCCCC)CCC6OC(=O)CCCCC)c5ccc6ccccc6c5)cc4)cc3)c3ccc4ccccc4c3)ccc21 (centres unmarked) [HTL17],thin film observation after annealing,"annealing at 180° C. for 60 minutes under argon, polarization microscope",crystallization was not observed
same,thin film observation,"film from 1.0% by mass chloroform solution on silicon substrate, before annealing",smooth and continuous amorphous film was formed
